Laboratory results taken from article PMC10350061.

B1: Septin 2 (protein, UniProt P42208 1-361)
chain: MSKQQPTQFINPETPGYVGFANLPNQVHRKSVKKGFEFTLMVVGESGLGKSTLINSLFLTDLYPERIIPGAAEKIERTVQIEASTVEIEERGVKLRLTVVDTPGYGDAINCRDCFKTIISYIDEQFERYLHDESGLNRRHIIDNRVHCCFYFISPFGHGLKPLDVAFMKAIHNKVNIVPVIAKADTLTLKERERLKKRILDEIEEHSIKIYHLPDAESDEDEDFKEQTRLLKASIPFSVVGSNQLIEAKGKKVRGRLYPWGVVEVENPEHNDFLKLRTMLITHMQDLQEVTQDLHYENFRSERLKRGGRKVENEDMNKDQILLEKEAELRRMQEMIARMQAQMQMQMQGGDSDSGALGQHV
B2: Septin 9 (protein, UniProt Q80UG5 1-583)
chain: MKKSYSGVTRTSSGRLRRLADPTGPALKRSFEVEEIEPPNSTPPRRVQTPLLRATVASSSQKFQDLGVKNSEPAARLVDSLSQRSPKPSLRRVELAGAKAPEPMSRRTEISIDISSKQVESTASAAGPSRFGLKRAEVLGHKTPEPVPRRTEITIVKPQESVLRRVETPASKIPEGSAVPATDAAPKRVEIQVPKPAEAPNCPLPSQTLENSEAPMSQLQSRLEPRPSVAEVPYRNQEDSEVTPSCVGDMADNPRDAMLKQAPASRNEKAPMEFGYVGIDSILEQMRRKAMKQGFEFNIMVVGQSGLGKSTLINTLFKSKISRKSVQPTSEERIPKTIEIKSITHDIEEKGVRMKLTVIDTPGFGDHINNENCWQPIMKFINDQYEKYLQEEVNINRKKRIPDTRVHCCLYFIPATGHSLRPLDIEFMKRLSKVVNIVPVIAKADTLTLEERVYFKQRITADLLSNGIDVYPQKEFDEDAEDRLVNEKFREMIPFAVVGSDHEYQVNGKRILGRKTKWGTIEVENTTHCEFAYLRDLLIRTHMQNIKDITSNIHFEAYRVKRLNEGNSAMANGIEKEPEAQEM
B3: Nuclear-interacting partner of Alk (protein, UniProt Q80YV2 1-501)
chain: MAATSEGPLFAASIEKTWGSVVRSPEGTPQKVRELIDEGIVPEEGGTEPKDTAATFQSVDGSPQAEQSPLESTSKEAFFHRVETFSSLKWAGKPPELSPLICAKYGWVTVECDMLKCSSCQAFLCASLQPTFDFGRYKERCAELKKSLCSAHEKFCFWPDSPSPDRFGMLPLGEPAVLISEFLDRFQSLCHLDLQLPSLRPEDLKTMCLTEDAVSALLHLLEDELDFHADDRKTTSKLGSDVQVQATACVLSLCGWACSSLEPTQLSLITCYQCMRKVGLWGFQQIESSMTDLEASFGLTSSPIPGVEGRPEHFPLVPESPRRMMTRSQDATVSPGSEQSEKSPGPIVSRTRSWESSSPVDRPELEAASPTTRSRPVTRSMGTGDSAGVEVPSSPLRRTKRARLCSSSSSDTSPRSFFDPTSQHRDWCPWVNITLVKETKENGETEVDACTPAEPGWKAVLTILLAHKRSNQPAETDSMSLSEKSRKVFRIFRQWESSSSS
B4: cAMP specific 3-5-cyclic phosphodiesterase 4D (enzyme, UniProt Q01063 1-747)
chain: MERDTCDVLSRSKSASEETLHSCNEEEDPFRGMEPYLVRRLSSRSIQLPPLAFRQLEQADLRSESENIPRPTSLPLKILPLIAVTSADSSGFDVDNGTSAGRSPLDPMTSPGSGLILQANFVHSQRRESFLYRSDSDYDLSPKSMSRNSSIASDIHGDDLIVTPFAQVLASLRTVRNNFAALTNLQDRAPSKRSPMCNQPSINKATITEEAYQKLASETLEELDWCLDQLETLQTRHSVSEMASNKFKRMLNRELTHLSEMSRSGNQVSEYISNTFLDKQHEVEIPSPTQKEKEKKKRPMSQISGVKKLMHSSSLTNSCIPRFGVKTEQEDVLAKELEDVNKWGLHVFRIAELSGNRPLTVIMHTIFQERDLLKTFKIPVDTLITYLMTLEDHYHADVAYHNNIHAADVVQSTHVLLSTPALEAVFTDLEILAAIFASAIHDVDHPGVSNQFLINTNSELALMYNDSSVLENHHLAVGFKLLQEENCDIFQNLTKKQRQSLRKMVIDIVLATDMSKHMNLLADLKTMVETKKVTSSGVLLLDNYSDRIQVLQNMVHCADLSNPTKPLQLYRQWTDRIMEEFFRQGDRERERGMEISPMCDKHNASVEKSQVGFIDYIVHPLWETWADLVHPDAQDILDTLEDNREWYQSTIPQSPSPAPDDQEEGRQGQTEKFQFELTLEEDCESDTEKDSGSQVEEDTSCSDSKTLCTQDSESTEIPLDEQVEEEAVAEEESQPETCVPDDCCPDT
B5: Septin 7 (protein, UniProt O55131 1-436)
chain: MSVSARSAAAEERSVNCGTMAQPKNLEGYVGFANLPNQVYRKSVKRGFEFTLMVVGESGLGKSTLINSLFLTDLYSPEYPGPSHRIKKTVQVEQSKVLIKEGGVQLLLTIVDTPGFGDAVDNSNCWQPVIDYIDSKFEDYLNAESRVNRRQMPDNRVQCCLYFIAPSGHGLKPLDIEFMKRLHEKVNIIPLIAKADTLTPEECQQFKKQIMKEIQEHKIKIYEFPETDDEEENKLVKKIKDRLPLAVVGSNTIIEVNGKRVRGRQYPWGVAEVENGEHCDFTILRNMLIRTHMQDLKDVTNNVHYENYRSRKLAAVTYNGVDNNKNKGQLTKSPLAQMEEERREHVAKMKKMEMEMEQVFEMKVKEKVQKLKDSEAELQRRHEQMKKNLEAQHKELEEKRRQFEEEKANWEAQQRILEQQNSSRTLEKNKKKGKIF
B6: Septin 10 (protein, UniProt Q8C650 1-452)
chain: MASCDEIKEHPRSLSMCGHVGFESLPDQLVDRSIEQGFCFNILCVGETGIGKSTLINTLFNTNFEELESSHFCPCVRLRAQTYELQESNVRLKLTIVNTVGFGDQINKEDSYQPIVDYIDDQFEAYLQEEVKIKRALFNYHDSRIHVCLYFIAPTGHSLRTLDLLTMKSLDNKVNIIPLIAKADTISKSELQKFKMKLMNELVINGVQIYQFPTDDDTTSKINGAMNGHLPFAVVGSMDEIKVGNKMVKGRQYPWGIVQVENENHCDFVKLREMLICTNMEDLREQTHMRHYELYRRCKLQEMGFVDMGPENKPLSLQETYEAKRHEFYGERQRKEEQMKQMFVQRVKEKEAILKEAERELQAKFEHLKRIHQEERMKLEEKRRMLEEESVAFAKKKATCELFPNQSFLASGSSIRKDKDRKKADGASAFCDCLTAQESVRLCISSPRKDMD
B7: Homer protein homologue (protein, UniProt Q99JP6 1-356)
chain: MSTAREQPIFSTRAHVFQIDPTTKRNWIPAGKHALTVSYFYDATRNVYRIISIGGAKAIINSTVTPNMTFTKTSQKFGQWADSRANTVYGLGFASEQQLTQFAEKFQEVKEAARLAREKSQDGGEFTSTGLALASHQVPPSPLVSTNGPGEEKLFRSQSADTPGPTERERLKKMLSEGSVGEVQWEAEFFALQDSNQRLAGALREANAAATQWRQQLEVQRAEAELLRQRVAELEAQVAVEPVRAGEKEATSQSVEQLEARVQTKDQTLKNQSTGTREAPDTAEREETQQQVQDLETRNAELEQQLRSMECNLEEARAERERARAEVGRAAQLLDVRLFELSELREGLARLAEAAP
B8: E3 ubiquitin ligase Traf7 (enzyme, UniProt Q922B6 1-594)
chain: MPPINTPRRSDSAISVRSLHSESSMSLRSTFSLPEEEEEPEPLVFAEQPSVKLCCQLCCSVFKDPVITTCGHTFCRRCALKSEKCPVDNAKLTVVVNNIAVAEQIGELFIHCRHGCHAAGTGKPGVFEVDPRGCPFTIKLSARKDHESSCDYRPVRCPNNPSCPPLLKMNLEAHLKECEHIKCPHSKYGCTFIGNQDTYETHLETCRFEGLKEFLQQTDDRFHEMHVALAQKDQEIAFLRSMLGKLSEKIDQLEKSLELKFDVLDENQSKLSEDLMEFRRDASMLNDELSHINARLNMGILGSYDPQQIFKCKGTFVGHQGPVWCLCVYSMGDLLFSGSSDKTIKVWDTCTTYKCQKTLEGHDGIVLALCIQGCKLYSGSADCTIIVWDIQNLQKVNTIRAHDNPVCTLVSSHNMLFSGSLKAIKVWDIVGTELKLKKELTGLNHWVRALVAAQSYLYSGSYQTIKIWDIRTLDCIHVLQTSGGSVYSIAVTNHHIVCGTYENLIHVWDIESKEQVRTLTGHVGTVYALAVISTPDQTKVFSASYDRSLRVWSMDNMICTQTLLRHQGSVTALAVSRGRLFSGAVDSTVKVWTC

biological target: Numb (mouse (endogenous in C2C12)); experiment: affinity purification with mass spectrometry; endogenous Numb precipitated with goat polyclonal anti-Numb (Abcam Ab4147) and Protein A/G Plus from lysate of 5-day differentiated C2C12 myotubes; 25 mM Tris HCl pH 7.2, 150 mM NaCl, 1 mM EDTA, 5% glycerol, 0.1% Triton X-100, 4 °C; goat IgG as control; eluted with 0.3% SDS at 37 °C; LC/MS/MS; seven independent samples

binding, binds:
B1
B2
B3
B4
B5
B6
B7
B8

These are yes or no findings as the source states them, for the method shown. Binding seen in cells or lysates may run through a third protein. These calls come from enrichment with a bait or labelling near it, and not all partners need be listed.
